The list shows a part of the results.

Amino acid sequences for entries named in this document (tags omitted). A change or cut given only in a name is not applied to a line headed by its entry.
UniProt Q9BQ65: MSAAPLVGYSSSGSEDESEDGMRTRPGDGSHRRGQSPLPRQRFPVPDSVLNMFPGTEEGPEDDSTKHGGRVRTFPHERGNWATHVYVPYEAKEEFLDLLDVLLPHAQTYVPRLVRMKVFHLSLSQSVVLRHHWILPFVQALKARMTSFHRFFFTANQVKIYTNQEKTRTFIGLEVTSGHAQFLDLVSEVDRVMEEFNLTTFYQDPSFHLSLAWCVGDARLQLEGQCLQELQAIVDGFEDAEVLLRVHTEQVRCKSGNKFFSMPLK
UniProt Q9BRU9: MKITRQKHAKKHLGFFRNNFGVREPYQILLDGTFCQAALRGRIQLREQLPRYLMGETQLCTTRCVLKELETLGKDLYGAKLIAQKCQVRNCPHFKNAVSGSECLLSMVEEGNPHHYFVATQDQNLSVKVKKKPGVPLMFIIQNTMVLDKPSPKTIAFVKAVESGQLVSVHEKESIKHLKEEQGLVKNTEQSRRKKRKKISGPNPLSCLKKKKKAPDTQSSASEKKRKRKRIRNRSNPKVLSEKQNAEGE
UniProt O75317, whole entry, looked up: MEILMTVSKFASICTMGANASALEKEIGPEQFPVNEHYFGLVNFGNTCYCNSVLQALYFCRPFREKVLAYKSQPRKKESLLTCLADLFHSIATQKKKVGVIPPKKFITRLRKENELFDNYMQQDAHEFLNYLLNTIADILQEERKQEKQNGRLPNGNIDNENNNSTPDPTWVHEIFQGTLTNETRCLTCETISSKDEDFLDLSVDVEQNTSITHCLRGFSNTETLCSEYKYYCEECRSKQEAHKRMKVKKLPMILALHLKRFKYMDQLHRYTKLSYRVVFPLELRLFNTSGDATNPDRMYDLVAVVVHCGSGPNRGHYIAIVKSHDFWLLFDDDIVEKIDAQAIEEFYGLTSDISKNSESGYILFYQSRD
UniProt Q14135: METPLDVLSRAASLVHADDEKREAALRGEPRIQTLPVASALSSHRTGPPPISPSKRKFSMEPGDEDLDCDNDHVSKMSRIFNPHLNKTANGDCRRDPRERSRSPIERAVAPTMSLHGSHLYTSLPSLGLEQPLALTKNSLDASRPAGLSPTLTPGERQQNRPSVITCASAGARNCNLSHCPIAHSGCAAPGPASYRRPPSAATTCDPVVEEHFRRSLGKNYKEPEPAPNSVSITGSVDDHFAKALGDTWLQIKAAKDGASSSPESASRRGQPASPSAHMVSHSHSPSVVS
UniProt Q9UDW1: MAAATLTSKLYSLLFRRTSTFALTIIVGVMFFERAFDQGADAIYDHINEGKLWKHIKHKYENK
UniProt Q70CQ3: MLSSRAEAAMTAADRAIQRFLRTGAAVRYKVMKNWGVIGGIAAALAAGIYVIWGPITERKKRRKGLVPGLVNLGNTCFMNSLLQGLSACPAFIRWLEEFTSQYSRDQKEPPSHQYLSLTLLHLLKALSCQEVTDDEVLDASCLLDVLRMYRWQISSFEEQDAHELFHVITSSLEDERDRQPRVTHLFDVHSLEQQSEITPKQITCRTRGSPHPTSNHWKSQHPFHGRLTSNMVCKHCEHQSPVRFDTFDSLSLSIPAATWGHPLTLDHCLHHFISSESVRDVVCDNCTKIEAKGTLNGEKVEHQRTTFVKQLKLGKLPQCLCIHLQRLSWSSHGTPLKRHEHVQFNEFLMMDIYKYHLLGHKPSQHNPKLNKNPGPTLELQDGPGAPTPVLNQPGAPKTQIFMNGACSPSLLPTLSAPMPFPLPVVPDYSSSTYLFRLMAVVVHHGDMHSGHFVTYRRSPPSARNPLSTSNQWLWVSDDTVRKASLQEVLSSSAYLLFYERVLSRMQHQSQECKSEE
UniProt Q9ULK5: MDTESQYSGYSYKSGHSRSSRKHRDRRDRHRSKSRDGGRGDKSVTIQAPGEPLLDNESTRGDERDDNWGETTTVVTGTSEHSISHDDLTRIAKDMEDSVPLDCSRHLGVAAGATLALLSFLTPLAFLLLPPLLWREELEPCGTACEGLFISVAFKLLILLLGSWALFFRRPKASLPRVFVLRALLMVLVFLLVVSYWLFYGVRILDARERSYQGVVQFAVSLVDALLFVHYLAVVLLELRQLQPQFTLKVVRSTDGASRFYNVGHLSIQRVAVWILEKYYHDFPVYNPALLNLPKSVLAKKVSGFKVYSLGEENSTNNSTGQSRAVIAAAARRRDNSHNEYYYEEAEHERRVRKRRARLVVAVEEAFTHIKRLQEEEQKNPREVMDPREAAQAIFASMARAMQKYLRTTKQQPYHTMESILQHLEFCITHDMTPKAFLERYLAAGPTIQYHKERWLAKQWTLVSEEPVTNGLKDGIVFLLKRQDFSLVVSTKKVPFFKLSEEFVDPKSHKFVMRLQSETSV
UniProt O75385: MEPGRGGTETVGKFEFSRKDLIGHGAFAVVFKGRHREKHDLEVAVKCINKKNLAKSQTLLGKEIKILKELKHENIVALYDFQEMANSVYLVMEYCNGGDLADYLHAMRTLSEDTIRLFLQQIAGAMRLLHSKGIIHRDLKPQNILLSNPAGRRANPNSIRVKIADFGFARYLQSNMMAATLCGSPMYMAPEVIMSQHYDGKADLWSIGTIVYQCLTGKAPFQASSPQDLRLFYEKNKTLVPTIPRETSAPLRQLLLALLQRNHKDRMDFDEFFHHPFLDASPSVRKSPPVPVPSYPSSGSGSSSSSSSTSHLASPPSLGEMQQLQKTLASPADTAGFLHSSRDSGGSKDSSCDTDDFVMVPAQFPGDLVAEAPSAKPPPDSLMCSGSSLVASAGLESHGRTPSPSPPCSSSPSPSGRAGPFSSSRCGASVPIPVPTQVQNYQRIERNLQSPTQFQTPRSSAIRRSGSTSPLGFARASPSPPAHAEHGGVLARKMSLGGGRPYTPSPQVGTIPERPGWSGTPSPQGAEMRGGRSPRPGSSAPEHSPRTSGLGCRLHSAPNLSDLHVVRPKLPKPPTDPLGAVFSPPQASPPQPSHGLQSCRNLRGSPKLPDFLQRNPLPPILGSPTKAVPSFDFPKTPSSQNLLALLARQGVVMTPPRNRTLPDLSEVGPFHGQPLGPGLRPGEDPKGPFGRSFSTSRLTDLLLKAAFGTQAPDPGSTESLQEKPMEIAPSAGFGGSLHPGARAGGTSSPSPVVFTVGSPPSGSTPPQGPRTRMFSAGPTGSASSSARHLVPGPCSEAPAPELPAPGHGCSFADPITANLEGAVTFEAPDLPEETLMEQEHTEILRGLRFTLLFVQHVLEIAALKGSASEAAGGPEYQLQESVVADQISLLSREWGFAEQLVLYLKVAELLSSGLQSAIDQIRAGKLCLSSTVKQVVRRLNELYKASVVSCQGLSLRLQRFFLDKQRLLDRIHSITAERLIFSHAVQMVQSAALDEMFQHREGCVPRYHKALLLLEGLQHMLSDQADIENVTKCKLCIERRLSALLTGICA
UniProt P55851: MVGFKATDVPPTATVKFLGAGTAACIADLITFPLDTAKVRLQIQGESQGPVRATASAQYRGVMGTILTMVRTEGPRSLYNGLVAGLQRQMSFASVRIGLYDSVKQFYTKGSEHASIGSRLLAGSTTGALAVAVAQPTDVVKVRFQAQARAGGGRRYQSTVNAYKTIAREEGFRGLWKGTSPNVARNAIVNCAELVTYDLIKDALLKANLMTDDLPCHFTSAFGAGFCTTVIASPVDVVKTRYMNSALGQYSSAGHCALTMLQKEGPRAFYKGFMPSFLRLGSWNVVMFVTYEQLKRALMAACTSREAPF
UniProt Q9NVE5: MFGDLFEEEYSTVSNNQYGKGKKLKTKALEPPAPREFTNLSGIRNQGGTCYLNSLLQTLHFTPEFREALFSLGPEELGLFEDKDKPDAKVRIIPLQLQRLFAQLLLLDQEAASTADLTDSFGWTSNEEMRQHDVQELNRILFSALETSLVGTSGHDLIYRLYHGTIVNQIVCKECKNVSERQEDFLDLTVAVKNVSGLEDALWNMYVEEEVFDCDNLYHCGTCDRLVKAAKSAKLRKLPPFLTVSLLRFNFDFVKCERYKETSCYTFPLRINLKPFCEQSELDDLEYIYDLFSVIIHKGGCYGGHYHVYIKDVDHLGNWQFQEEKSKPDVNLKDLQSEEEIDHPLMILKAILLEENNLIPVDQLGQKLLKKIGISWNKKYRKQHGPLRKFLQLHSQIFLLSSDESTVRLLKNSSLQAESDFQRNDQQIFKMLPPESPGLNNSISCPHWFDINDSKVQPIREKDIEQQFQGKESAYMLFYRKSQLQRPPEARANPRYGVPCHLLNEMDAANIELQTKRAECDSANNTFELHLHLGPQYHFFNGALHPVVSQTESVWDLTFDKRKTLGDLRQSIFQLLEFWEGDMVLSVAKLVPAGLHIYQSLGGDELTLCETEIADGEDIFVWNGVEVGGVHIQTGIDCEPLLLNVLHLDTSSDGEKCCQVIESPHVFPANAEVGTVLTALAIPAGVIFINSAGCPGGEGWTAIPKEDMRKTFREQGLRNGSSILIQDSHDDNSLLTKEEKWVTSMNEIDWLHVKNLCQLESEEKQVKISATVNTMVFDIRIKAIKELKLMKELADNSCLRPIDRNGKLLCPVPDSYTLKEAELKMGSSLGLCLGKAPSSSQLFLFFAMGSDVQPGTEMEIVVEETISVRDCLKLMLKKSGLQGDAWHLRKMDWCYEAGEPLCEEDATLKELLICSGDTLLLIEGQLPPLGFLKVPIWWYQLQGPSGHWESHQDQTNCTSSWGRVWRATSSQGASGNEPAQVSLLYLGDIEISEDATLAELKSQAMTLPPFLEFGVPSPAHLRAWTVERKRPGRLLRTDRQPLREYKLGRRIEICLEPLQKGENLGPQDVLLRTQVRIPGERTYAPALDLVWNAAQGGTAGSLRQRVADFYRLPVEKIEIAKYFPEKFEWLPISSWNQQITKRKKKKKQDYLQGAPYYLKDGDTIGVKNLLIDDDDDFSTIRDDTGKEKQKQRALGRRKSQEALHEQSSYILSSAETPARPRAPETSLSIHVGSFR
UniProt C9J7I0: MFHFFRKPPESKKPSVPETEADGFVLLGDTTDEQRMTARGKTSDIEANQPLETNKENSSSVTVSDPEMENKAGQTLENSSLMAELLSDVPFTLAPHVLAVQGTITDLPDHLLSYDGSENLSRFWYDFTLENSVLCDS

Compound in this assay: C1COCCN1CCN2C3=CC=CC=C3N=C2NC(=O)C4=CC(=CC=C4)[N+](=O)[O-] [IRAK-1-4 Inhibitor I]
Put plainly: log2 fold change, soluble protein after heating vs DMSO (PISA); higher = thermal stabilisation; K562 lysate, 10 uM; active = over 0.2 and 3.5 SD of the protein, either way, in both replicates (recomputed). A digest of the protocol:
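Soluble protein was defined as the supernatant remaining after 21,000xg for 90 min, following pooling of heated aliquots and adjustment to 0.5% NP-40 at 4°C. Before that, crude K562 extract at 1 mg/mL protein in PBS pH 7.4 with 1 mM MgCl2 was treated with 10 μM compound for 30 min and heated for 3 min across 48°C-58°C. Quantification used TMTpro 16plex LC-MS/MS with channel sums equalised, and values are log-two fold changes in thermal stability relative to solvent controls from duplicates.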
As for USB1 (UniProt Q9BQ65), the log2 fold change was inactive: 0.024.

For the target UTP23 (UniProt Q9BRU9), the log2 fold change was inactive: 0.053.

Turning to USP27X (UniProt A6NNY8), the log2 fold change was inactive: 0.028.

As for URB2 (UniProt Q14146), the log2 fold change was inactive: -0.002.

Consider USP12 (UniProt O75317), for which the log2 fold change was inactive: -0.162.

Regarding USP36 (UniProt Q9P275), the log2 fold change is inactive: -0.024.

On to VGLL4 isoform 4 (UniProt Q14135), for which the log2 fold change is inactive: -0.048.

Regarding UQCR10 (UniProt Q9UDW1), the log2 fold change was inactive: -0.033.

On to UNG (UniProt P13051), for which the log2 fold change was inactive: 0.005.

On to UPF3A (UniProt Q9H1J1), for which the log2 fold change is inactive: -0.09.

With USP30 (UniProt Q70CQ3), the log2 fold change was inactive: -0.172.

For UNC119 (UniProt Q13432), the log2 fold change is inactive: 0.077.

For the target URGCP (UniProt Q8TCY9), the log2 fold change was inactive: 0.022.

For USP38 (UniProt Q8NB14), the log2 fold change was inactive: -0.031.

Turning to URI1 isoform 4 (UniProt O94763), the log2 fold change was inactive: 0.069.

VANGL2 (UniProt Q9ULK5): the log2 fold change was inactive: 0.114.

For VCX3B (UniProt Q9H321), the log2 fold change is inactive: -0.024.

With ULK1 (UniProt O75385), the log2 fold change is inactive: -0.093.

Regarding UCP2 (UniProt P55851), the log2 fold change was inactive: -0.026.

Consider VASN (UniProt Q6EMK4), for which the log2 fold change was inactive: 0.222.

Turning to USP40 isoform 3 (UniProt Q9NVE5), the log2 fold change was inactive: -0.051.

Turning to UROD (UniProt H0Y5R6), the log2 fold change was inactive: -0.092.

For the target USP20 (UniProt Q9Y2K6), the log2 fold change was inactive: -0.012.

For UMAD1 (UniProt C9J7I0), the log2 fold change is inactive: -0.023.

On to USP33 (UniProt Q8TEY7), for which the log2 fold change was inactive: 0.016.

The values are drawn from the supplement of paper PMC10849652.
